Among the data in PubChem BioAssay AID2685 (National Center for Advancing Translational Sciences (NCATS), 2010) are cell number change and AC50 values, retold here.

This assay can be described thus: qHTS Assay for Lipid Storage Modulators in Drosophila S3 Cells.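 As to cell number change: cells counted by Cell Tracker Red CMTPX staining in the red channel.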 Conditions: BODIPY lipid droplet fluorescence, 18-24 h; for cell number change: measured here: cell count max response, cells fed with added oleic acid. A digest of the protocol: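 Drosophila S3 cells got compounds at several concentrations plus oleic acid (400 uM solution). Laser-scanning cytometry with 488 nm excitation read lipid droplets at 500-530 nm and cells at 575-640 nm. Percent activity was relative to 20 uM Triacsin C.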
In general terms: qHTS replaces the single test concentration by a dilution series.

Setting [1] is: measured here: cell number channel AC50, cells fed with added oleic acid.
Setting [2] is: measured here: lipid fluorescence (Fed channel) AC50, cells fed with added oleic acid.

The structures appear in SMILES notation. The list shows a part of the results. Shown are side measurements of this screen, not its main read-out; they come without a call. Compounds called inactive in the main read-out are mostly missing here. The note in brackets gives the kind of curve behind each potency; many fits are weak.

One may read the AC50 as the concentration giving half of the maximal activity seen. A lower AC50 goes with greater potency. In the case of `CCCCSP1(=S)NCCCO1` (stereo unspecified), the cell number change was -30.5%. Moreover, under setting [1], the AC50 is 0.146 µM [falling, full curve, poor fit].

For `COc1ccc(-c2[nH]ncc2CNC(C)Cc2ccsc2)c(F)c1` (stereo unspecified), the cell number change was 15.2%. Moreover, under setting [2], the AC50 was 25.9 µM [rising, single point].

Regarding `CCN1CC2(COC(=O)c3ccccc3N)CCC(OC)C34C5CC6C(OC)CC(O)(C5C6OC)C(O)(C(OC)C23)C14` (stereo unspecified), the cell number change was -5.27%. Also, under setting [2], the AC50 was 29.1 µM [rising, single point].

On to `C=CCn1c(O)c(C(C)=NCCCN(C)C)c(=O)[nH]c1=O`, for which the cell number change turned out to be 10.3%. The AC50 under setting [2] is 6.51 µM [falling, single point].

Take `CCCCCCN=C(C)c1c(O)n(Cc2ccccc2)c(=O)[nH]c1=O`: the cell number change was determined as 17.8%. The AC50 under setting [1] is 2.06 µM [falling, partial curve, poor fit].

Turning to `CNc1ccc2oc(C[C@H]3O[C@@]4(CC[C@H]3C)O[C@H]([C@H](C)C(=O)c3ccc[nH]3)[C@H](C)C[C@H]4C)nc2c1C(=O)O`, the cell number change was -72.6%. For the same compound, the AC50 under setting [1] is 0.259 µM [falling, full curve]. Further, the AC50 under setting [2] is 0.231 µM [falling, full curve].

`COc1ccc(C2=NCc3nnc(C)n3-c3ccc(Cl)cc32)cc1Cl`: the cell number change was -39%. Further, under setting [1], the AC50 was 32.6 µM [falling, partial curve, poor fit].

Take `CN1CCCN(C(=O)COc2ccc(F)cc2Cl)CC1`: the cell number change was 4.65%. Further, the AC50 under setting [2] was 0.0058 µM [rising, full curve, poor fit].

In the case of `CCC(=O)c1c(O)n(C2CCCCCC2)c(=O)[nH]c1=O`, the cell number change is -21.2%. The AC50 under setting [2] was 0.82 µM [falling, single point].

As for `C=CCN1C(=O)/C(=C/c2cc(C)n(-c3ccccn3)c2C)C(=O)NC1=S`, the cell number change is -13.1%.

As to `Cc1ccc(C[n+]2c(-c3ccc(C)cc3)cc(-c3ccc(C)cc3)cc2-c2ccc(C)cc2)cc1`, the cell number change was -89%. The AC50 under setting [1] was 5.17 µM [falling, partial curve]. The AC50 under setting [2] is 0.411 µM [falling, full curve].

In the case of `COc1ccc(CN2CCN(c3ccccc3F)CC2)c(OC)c1`, the cell number change was 1.95%. The half-maximal activity concentration (AC50) under setting [2] was 5.17 µM [falling, single point].

`CC(C)C(=O)N1CCN(CCN=Cc2c(O)n(C)c(=O)n(C)c2=O)CC1`: the cell number change was -19.6%. In addition, the AC50 under setting [2] was 5.17 µM [rising, single point].

As for `Cc1ccc(C(=O)O)cc1N=Nc1c(O)[nH]c(=O)[nH]c1=O`, the cell number change is -20.2%. Moreover, under setting [2], the AC50 is 0.116 µM [falling, full curve].

Consider `CCCCn1c(O)c(C=NC2CC3CCC2(C)C3(C)C)c(=O)[nH]c1=O` (stereo unspecified), for which the cell number change was -33%. For the same compound, the AC50 under setting [1] was 18.4 µM [falling, single point].

Consider `CN(C)C(=O)Oc1ccc(Br)c2ccccc12`, for which the cell number change was -3.28%. Under setting [2], the AC50 is 0.116 µM [falling, full curve, poor fit].

Consider `O=C(c1cc2ccccn2n1)N1CCC2(CC1)OCCO2`, for which the cell number change is -0.774%. Besides, under setting [2], the AC50 is 0.731 µM [rising, partial curve].

Consider `CCOC(=O)c1c(C)[nH]c(C)c1C(=O)C(Cc1ccccc1)N(C)C` (stereo unspecified), for which the cell number change stood at 23.9%. Also, under setting [2], the AC50 is 2.06 µM [rising, full curve].

As to `Fc1ccccc1CNCCc1ccc2c(c1)OCO2`, the cell number change was 9.52%.

Take `CCNC(=S)NCCC1=c2ccccc2=N/C1=C\c1c(O)n(C)c(=O)n(C)c1=O`: the cell number change was -16.2%. Moreover, the AC50 under setting [2] was 29.1 µM [falling, single point].

In the case of `CCCCCn1c(=O)c(C(=O)Nc2nc(CC(=O)OCC)cs2)c(O)c2ccccc21`, the cell number change is -23.2%. In addition, the concentration at half-maximal activity (AC50) under setting [1] was 0.0058 µM [falling, full curve, poor fit].

As to `COc1ccc(OC)c([C@@H](O)[C@H](C)NC(C)(C)C)c1`, the cell number change is -22.5%. Besides, the AC50 under setting [2] was 29.1 µM [falling, single point].

For the compound `C=CCn1c(O)c(C=Nc2c(C)n(C)n(-c3ccccc3)c2=O)c(=O)[nH]c1=O`, the AC50 under setting [2] is 6.51 µM [rising, single point].

With `Cc1cccc(NC(=O)COC(=O)c2cc(C)n(C3CC3)c2C)c1`, the AC50 under setting [2] was 4.11 µM [rising, single point].

`O=[N+]([O-])c1cc(-n2cnnn2)c(O)c([N+](=O)[O-])c1`: the cell number change is 16.9%.

On to `Cn1c(O)c(C=NCc2ccco2)c(=O)n(C)c1=O`, for which the AC50 by setting is: under setting [1], 6.51 µM [falling, single point]; under setting [2], 2.59 µM [falling, partial curve].

Turning to `Cc1cc(NC(=O)COC(=O)c2c(C)nn(Cc3ccccc3Cl)c2C)no1`, the AC50 is 0.092 µM [rising, full curve, poor fit] under setting [1] and 0.082 µM [rising, full curve, poor fit] under setting [2].

Turning to `COc1cc(CC2C(=O)N(C)C(=O)N(C)C2=O)ccc1OCc1ccccc1`, the cell number change is -13%. Further, the AC50 under setting [2] was 32.6 µM [falling, single point].

With `C/C(=N\NC(=O)c1ccccc1Cl)c1c(O)n(C2CCCCC2)c(=O)[nH]c1=O`, the cell number change was -1.91%. The AC50 under setting [1] is 3.26 µM [falling, single point]. Moreover, under setting [2], the AC50 is 3.66 µM [falling, partial curve].

Regarding `Cc1ccc(-n2c(-c3cccs3)nc3ccccc3c2=O)cc1`, the cell number change was -5.74%. Besides, the AC50 under setting [2] was 0.517 µM [rising, full curve, poor fit].

As for `CC(C)c1ccc(C2NCc3ccccc3-n3cccc32)cc1` (stereo unspecified), the cell number change was -95.4%. The AC50 under setting [1] is 14.6 µM [falling, partial curve]. Moreover, the AC50 under setting [2] is 20.6 µM [falling, partial curve].

Regarding `CN1CCN(c2cc(N3CCCCCC3)c(F)cc2[N+](=O)[O-])CC1`, the cell number change is 61.6%. In addition, the AC50 under setting [1] is 8.2 µM [rising, partial curve, poor fit]. Also, under setting [2], the AC50 is 29.1 µM [rising, partial curve, poor fit].

`Fc1ccccc1CN1CCN(c2ccc(Cl)cc2)CC1`: the cell number change was -20.9%. Moreover, under setting [2], the AC50 is 18.4 µM [falling, single point].

For `COc1ccc2c3c([nH]c2c1)C(C)NCC3` (stereo unspecified), the cell number change is -5.52%. For the same compound, the AC50 under setting [2] was 14.6 µM [falling, partial curve].

With `O=C(c1ccc(F)cc1)C(Cc1ccccc1)N1CCCCC1` (stereo unspecified), the cell number change worked out at 49.4%.

Consider `COc1ccc(CC2C(=O)NC(=O)N(c3ccccc3)C2=O)c(OC)c1` (stereo unspecified), for which the cell number change was 9.93%. Moreover, the AC50 under setting [2] was 0.731 µM [falling, single point].

As to `Cc1ccc(/C=C2\C(=O)NC(=S)N(c3ccc(F)cc3)C2=O)s1`, the cell number change is -33.3%. In addition, under setting [1], the AC50 was 29.1 µM [falling, single point]. The AC50 under setting [2] is 29.1 µM [falling, single point].

As to `O=C(O)c1sc2cc(Cl)ccc2c1Cl`, the cell number change was determined as 13.4%.

Turning to `C/C(=N\NC(=O)c1ccncc1)c1c(O)n(-c2ccccc2)c(=O)[nH]c1=O`, the cell number change was -47.4%. Besides, the AC50 under setting [1] was 0.651 µM [falling, full curve]. Also, the AC50 under setting [2] was 23.1 µM [falling, partial curve].

On to `Cc1ccc2c(c1)C1CN(C)CCC1N2C(=O)Cn1nnc(-c2ccccc2F)n1` (stereo unspecified), for which the cell number change is -22.9%. For the same compound, under setting [1], the AC50 was 0.164 µM [falling, full curve, poor fit]. Further, the AC50 under setting [2] was 0.731 µM [falling, full curve].

Regarding `CC(C)OC(=O)c1c(N)n(Cc2ccco2)c2nc3ccccc3nc12`, the cell number change is 2.73%.

As to `Cc1nn(Cc2ccccc2Cl)c(C)c1C(=O)OCC(=O)NC1CCCC(C)C1C` (stereo unspecified), the cell number change was -8.41%. For the same compound, under setting [2], the AC50 was 18.4 µM [rising, single point].

`Cc1cccc(CN2CCN(c3ccc(Cl)cc3)CC2)c1`: the cell number change came out at 37.5%. For the same compound, the AC50 under setting [1] is 29.1 µM [rising, single point].

Turning to `Nc1nnc(P(c2ccccc2)c2ccccc2)s1`, the cell number change was 8.32%. For the same compound, the AC50 under setting [2] is 0.082 µM [rising, full curve, poor fit].

For the compound `CC(Cc1ccccc1)N1Cc2ccccc2C1` (stereo unspecified), the cell number change is -9.63%. Besides, the AC50 under setting [2] was 2.91 µM [falling, full curve, poor fit].

For the compound `O=P1(Nn2cnnc2)C=C(c2ccccc2)OC(c2ccccc2)=C1`, under setting [1], the half-maximal activity concentration (AC50) is 32.6 µM [rising, single point].

With `COC(=O)[C@@H]1C[C@H]1[C@@H](NP(=O)(c1ccccc1)c1ccccc1)c1ccccc1`, the cell number change was found to be 17%. For the same compound, the AC50 under setting [2] was 0.206 µM [rising, full curve, poor fit].

Turning to `COc1ccc(CNCCc2ccc(Cl)cc2Cl)cc1`, the cell number change was 7.87%. The AC50 under setting [2] is 4.11 µM [rising, full curve].

With `O=[N+]([O-])c1cc(Cl)c(Cl)cc1Cl`, the cell number change worked out at 16.2%. The AC50 under setting [2] is 1.16 µM [falling, single point].

For the compound `Cc1cccc(-n2c(O)c(/C=N/NC(=O)c3ccncc3)c(=O)[nH]c2=O)c1`, the AC50 under setting [2] was 0.58 µM [falling, full curve].

On to `O=C(C(=O)N1CCOCC1)c1cn(Cc2ccc(F)cc2)c2ccccc12`, for which the cell number change is 23.5%.

`COc1ccc(CN2CCN(c3ccccc3)CC2)c(C)c1C`: the cell number change is -32.6%. The AC50 under setting [1] is 29.1 µM [falling, single point]. In addition, the concentration at half-maximal activity (AC50) under setting [2] was 29.1 µM [falling, single point].

On to `COc1cc(OC)c(OC)cc1CNCCc1cccc(F)c1`, for which the cell number change was 11.1%. In addition, under setting [2], the AC50 is 20.6 µM [rising, single point].

For `CC(=O)c1cn(CCCOc2ccccc2)c2ccccc12`, the cell number change was -24.8%. Besides, the AC50 under setting [2] is 29.1 µM [falling, single point].

Turning to `CN(C)c1ccc(C=C2C(=O)NC(=O)NC2=O)cc1[N+](=O)[O-]`, the cell number change is -19.8%. For the same compound, the concentration at half-maximal activity (AC50) under setting [1] is 0.00461 µM [falling, full curve, poor fit]. The AC50 under setting [2] is 0.00461 µM [falling, full curve, poor fit].

For the compound `O=C(CN1CCCCC1)c1ccc2c(c1)OCO2`, the cell number change was -11%. Under setting [2], the AC50 is 4.11 µM [falling, single point].

Take `CCOC(=O)C1=C(N)OC2=C(C(=O)CCC2)C12C(=O)Nc1ccccc12` (stereo unspecified): the cell number change is -19.7%. The AC50 under setting [2] is 0.00461 µM [rising, full curve, poor fit].

In the case of `Cn1cc(C=C2C(=O)NC(=O)NC2=O)c2ccccc21`, the cell number change turned out to be 142%. Further, the AC50 under setting [1] was 20.6 µM [rising, partial curve].

For the compound `CCCCn1c(O)c(C(CC)=Nc2cccc(C(=O)O)c2)c(=O)[nH]c1=O`, under setting [1], the AC50 is 4.61 µM [falling, single point].
